# Reference: publication PMC9599254, “Human Milk Oligosaccharide Utilization in Intestinal Bifidobacteria Is Governed by Global Transcriptional Regulator NagR” (mSystems, 2022)
# Construct, isoform or probe ends are uncertain for at least one entry. A weaker result is weaker than the reference pair of the same experiment.
# Test system: NagR
# Assay: EMSA
# Conditions: 10 mM Tris-HCl pH 7.5, 50 mM KCl, 5 mM MgCl2, 2.25 mM DTT, 0.125% Tween 20, 2.5% glycerol, 1 nM probe, 0-2000 nM NagR, 60 min, room temperature, 6% gel, 0.5x TBE, recombinant protein, protein details: N-terminal His (pET-49b-derived), label: 5' IRD700 (strand 1)
# [1] = EC50 range given for the two moderate probes, individual value only in Fig. 5
# [2] = EC50 range given for the high-affinity probes as a group, individual value only in Fig. 5
sequence,measurement,setting,value
GCGCGACTCACATATATGTTAAGAATGTTGACGAACTCCATCTCCCGTG (double strand) [hmoA3 probe],binding result,[1],binds
TCGTGGTGCCACATATTGTTAGGCATGTTGACAAAATGCTGCGAAGAGG (double strand) [hmoA2 probe],binding result,[2],binds
TCACAAGGTCCAAAATTGTTAGTATCATTAACAAATAGCGAATCGCCAA (double strand) [nagB_I probe],binding result,[2],binds
GCCGATATTTCATATATGTTAAGGACGTTGACAAAATATCTCCCGAGAC (double strand) [hmoA probe],binding result,"0.1 mM GlcNAc, effect lost, 25 nM NagR",binds
same,binding result,"0.1 mM GlcNAc-1P, effect lost, 25 nM NagR",binds
same,binding result,"1 mM GlcNAc-6P, effect lost, 25 nM NagR",binds
same,binding result,"10 mM GlcN-6P, complex not disrupted, 25 nM NagR",binds
same,binding result,"10 mM GlcNAc, complex disrupted, effector EC50 0.33 +/- 0.05 mM, 25 nM NagR",binds more weakly
same,binding result,"10 mM GlcNAc-1P, complex disrupted, effector EC50 0.49 +/- 0.06 mM, 25 nM NagR",binds more weakly
same,binding result,"10 mM GlcNAc-6P, complex disrupted, 25 nM NagR",binds more weakly
same,binding result,[2],binds
CGGGACGCGCGGTAATTGTTAGTTGGGTTGACAATAAAAGAGCAAAGGC (double strand) [gltA probe],binding result,[1],binds
TCGCCTTGGGTGAATTTGTTAAGATAGTTGTCAATAGTCGGATGCACAC (double strand) [nagK probe],binding result,[2],binds
